Reference: patent US12274683B2 (Bayer HealthCare LLC, priority 2019, dated 2025)

Tested on: inflammation/edema induced by carrageenan-injection into the footpads of Sprague Dawley (SD) rats
Assay: Carrageenan-induced inflammation rat paw test (Example 3)
Details: topical 100 μL/rat 3 h (oral 1 h) before carrageenan, 2-24 h post-injection, N=10, SE in line below

With `COc1ccc2cc([C@H](C)C(=O)O)ccc2c1` [Naproxen (oral), Naproxen] the “Ankle Diameter Difference (R − L) AUC” value was “‡1.792”, the “Von Frey Absolute Threshold (g) AUC (Right Paw)” value was “‡155.1 g” and the “Von Frey Absolute Threshold (g) AUC (Right Paw)” value (listed as oral Naproxen) was “increased significantly”.
